± gives the standard deviation of the averaged measurements. Small differences around the control level are noise.
Tests used:
Experiment in all cases: level (log10 ratio to DMSO vehicle control); higher = higher biomarker level / cell amount than vehicle control
[1] = compound: C=C(C)C(=O)OCCC(F)(F)C(F)(F)C(F)(F)C(F)(F)C(F)(F)C(F)(F)C(F)(F)C(F)(F)F [8:2 Fluorotelomer methacrylate]; conditions: in DMSO
Description: (§1)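 BioMAP Diversity Plus panel of 12 human primary cell co-culture systems (3C, 4H, LPS, SAg, BT, BF4T, BE3C, CASM3C, HDF3CGF, KF3CT, MyoF, Mphg). Compounds were added 1 h before stimulation and left for 24 h (MyoF 48 h; BT 72 h for soluble read-outs or 6 d for IgG). Biomarkers were read by ELISA, cytotoxicity by SRB, PBMC viability and proliferation by Alamar Blue. Each well value was divided by the mean of 8 DMSO control wells on the same plate and log10 transformed; duplicate blinded samples were tested at 4 concentrations.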

[2] = compound: NC(=O)C(F)(F)C(F)(F)C(F)(F)C(F)(F)C(N)=O [Octafluoroadipamide]; conditions: 2200 nM; in DMSO
Description: as §1

[3] = compound: COC(=O)CCC(F)(F)C(F)(F)C(F)(F)C(F)(F)F [Methyl 2H,2H,3H,3H-perfluoroheptanoate]; conditions: 2200 nM; in DMSO
Description: as §1

[4] = compound: O=C(O)CCC(F)(F)C(F)(F)C(F)(F)C(F)(F)C(F)(F)F [2H,2H,3H,3H-Perfluorooctanoic acid]; conditions: 2200 nM; in DMSO
Description: as §1

[5] = compound: FC(F)(F)C(F)(F)C(F)(F)C(F)(F)C(F)(F)CCI [1-Iodo-1H,1H,2H,2H-perfluoroheptane]; conditions: 2200 nM; in DMSO
Description: as §1

[6] = compound: NC(=O)C(F)(F)C(F)(F)C(F)(F)C(F)(F)F [Nonafluoropentanamide]; conditions: 2200 nM; in DMSO
Description: as §1

[7] = compound: C=C(C)C(=O)OCCC(F)(F)C(F)(F)C(F)(F)C(F)(F)C(F)(C(F)(F)F)C(F)(F)F [(Perfluoro-5-methylhexyl)ethyl 2-methylprop-2-enoate]; conditions: in DMSO
Description: as §1

[8] = compound: OC(C(F)(F)F)(C(F)(F)F)C(O)(C(F)(F)F)C(F)(F)F [Perfluoropinacol]; conditions: in DMSO
Description: as §1

[9] = compound: O=S(=O)(O)CCC(F)(F)C(F)(F)C(F)(F)C(F)(F)C(F)(F)C(F)(F)F [6:2 Fluorotelomer sulfonic acid]; conditions: in DMSO
Description: as §1

[10] = compound: NS(=O)(=O)C(F)(F)C(F)(F)C(F)(F)C(F)(F)C(F)(F)C(F)(F)F [Perfluorohexanesulfonamide]; conditions: 2200 nM; in DMSO
Description: as §1

[11] = compound: O=C(O)C(F)(F)C(F)(F)C(F)(F)C(F)(F)C(F)(F)C(F)(F)C(F)(F)C(F)(F)Cl [9-Chloro-perfluorononanoic acid]; conditions: in DMSO
Description: as §1

[12] = compound: O=S(=O)(O)C(F)(F)C(F)(F)OC(F)(F)C(F)(F)F [Perfluoro(2-ethoxyethane)sulfonic acid]; conditions: 2200 nM; in DMSO
Description: as §1

[13] = compound: O=C(O)C(F)(F)C(F)(F)C(=O)O [Tetrafluorosuccinic acid]; conditions: 2200 nM; in DMSO
Description: as §1

[14] = compound: OCCC(F)(F)C(F)(F)C(F)(F)C(F)(F)F [4:2 Fluorotelomer alcohol]; conditions: 2200 nM; in DMSO
Description: as §1

Row | Test System | level (log10) ([1]; 740 nM) | level (log10) ([1]; 2200 nM) | level (log10) [2] | level (log10) [3] | level (log10) [4] | level (log10) [5] | level (log10) [6] | level (log10) ([7]; 740 nM) | level (log10) ([7]; 2200 nM) | level (log10) ([7]; 6700 nM) | level (log10) ([7]; 20000 nM) | level (log10) ([8]; 2200 nM) | level (log10) ([8]; 6700 nM) | level (log10) ([8]; 20000 nM) | level (log10) ([9]; 2200 nM) | level (log10) ([9]; 6700 nM) | level (log10) ([9]; 20000 nM) | level (log10) ([9]; 60000 nM) | level (log10) [10] | level (log10) ([11]; 2200 nM) | level (log10) ([11]; 6700 nM) | level (log10) ([11]; 20000 nM) | level (log10) [12] | level (log10) [13] | level (log10) [14]
1 | BE3C:EGFR | 0.0075 ± 0.016 | -0.002 ± 0.014 | -0.0065 ± 0.0021 | -0.0385 ± 0.0035 | -0.001 ± 0.0042 | 0.0105 ± 0.0035 | 0.009 ± 0.035 | 0.028 ± 0.02 | -0.0045 ± 0.013 | -0.0065 ± 0.011 | 0.009 ± 0.014 | -0.0085 ± 0.005 | 0.0065 ± 0.00071 | -0.027 ± 0.0085 | -0.0115 ± 0.015 | -0.0075 ± 0.00071 | -0.027 ± 0.0085 | -0.0095 ± 0.0064 | 0.0155 ± 0.016 | -0.0035 ± 0.011 | -0.004 ± 0.0014 | -0.101 ± 0.015 | 0.009 | 0.002 ± 0.027 | 0.02 ± 0.017
2 | 4H:VEGFR2 | 0.023 ± 0.02 | -0.015 ± 0.0014 | 0.03 ± 0.02 | 0.0695 ± 0.03 | 0.0575 ± 0.028 | -0.001 ± 0.068 | -0.013 ± 0.054 | 0.0075 ± 0.0064 | 0.018 ± 0.013 | -0.0185 ± 0.037 | -0.0115 ± 0.033 | 0.0365 ± 0.08 | -0.02 ± 0.023 | -0.138 ± 0.064 | 0.0325 ± 0.0078 | -0.0215 ± 0.012 | -0.101 ± 0.0064 | -0.026 ± 0.021 | 0.028 ± 0.051 | -0.048 ± 0.02 | -0.108 ± 0.011 | -0.0395 ± 0.013 | -0.011 ± 0.016 | 0.005 ± 0.059 | 0.0305 ± 0.0021
3 | BF4T:Keratin 8/18 | 0.001 ± 0.027 | -0.0125 ± 0.019 | 0.013 ± 0.013 | 0.01 ± 0.016 | 0.008 ± 0.018 | 0.0145 ± 0.011 | -0.0025 ± 0.018 | -0.031 ± 0.0085 | -0.0345 ± 0.0092 | -0.024 | -0.0115 ± 0.0078 | 0.005 ± 0.051 | -0.013 ± 0.0099 | -0.036 ± 0.0071 | 0.0105 ± 0.03 | 0.0075 ± 0.019 | -0.0065 ± 0.016 | 0.0045 ± 0.011 | 0.0085 ± 0.023 | 0.016 ± 0.044 | -0.004 ± 0.0057 | -0.0105 ± 0.0035 | 0.0185 ± 0.005 | -0.019 ± 0.024 | 0.002 ± 0.0028
4 | CASM3C:PAI-I | 0.0035 ± 0.00071 | -0.0015 ± 0.00071 | -0.0005 ± 0.025 | 0.0015 ± 0.013 | -0.0065 ± 0.019 | 0.0025 ± 0.0064 | 0.0065 ± 0.0092 | -0.007 ± 0.0057 | -0.0135 ± 0.005 | -0.004 ± 0.0014 | 0.002 ± 0.0014 | -0.0025 ± 0.0078 | -0.006 ± 0.0071 | -0.0075 ± 0.0064 | 0.001 ± 0.02 | -0.001 ± 0.023 | -0.0025 ± 0.015 | 0 ± 0.0099 | -0.0045 ± 0.0092 | -0.0095 ± 0.0078 | -0.002 ± 0.0071 | 0.0065 ± 0.0078 | 0.0025 ± 0.00071 | -0.002 ± 0.0028 | 0.017 ± 0.0028
5 | BF4T:CD106/VCAM-1 | -0.018 ± 0.025 | 0.0025 ± 0.015 | 0.013 ± 0.079 | 0.0005 ± 0.013 | 0.036 ± 0.073 | 0.0015 ± 0.043 | -0.0055 ± 0.074 | -0.009 ± 0.072 | 0.0175 ± 0.037 | -0.012 ± 0.02 | 0.0325 ± 0.036 | -0.001 ± 0.047 | -0.0455 ± 0.0021 | -0.096 | 0.0175 ± 0.071 | -0.0125 ± 0.04 | -0.0315 ± 0.0035 | -0.022 ± 0.057 | 0.009 ± 0.042 | -0.047 ± 0.071 | -0.0485 ± 0.005 | -0.141 ± 0.011 | 0.037 ± 0.027 | -0.0005 ± 0.011 | -0.0315 ± 0.12

From the supplement of paper PMC10331698
